This experiment has as its target T1, Inhibitor of DNA binding 2 (Id2) (UniProt P41136).
T1 sequence: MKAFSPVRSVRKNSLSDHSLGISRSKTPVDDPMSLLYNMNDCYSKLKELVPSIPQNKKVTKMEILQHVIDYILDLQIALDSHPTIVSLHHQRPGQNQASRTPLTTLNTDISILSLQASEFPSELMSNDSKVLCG
As to the kind of experiment: co-IP; immunoprecipitation with Id2 antibodies from lysates of suspended (anchorage-independent) anoikis resistant cells; hypo-phosphorylated Rb detected in the precipitate.

These are yes or no findings as the source states them, for the method shown. In cells and extracts the contact can be indirect. Some binding calls cover weakened binding; strength is not graded here.

B1: hypo-phosphorylated Rb (retinoblastoma tumor suppressor) (protein, UniProt P13405 1-921)
chain: MPPKAPRRAAAAEPPPPPPPPPREDDPAQDSGPEELPLARLEFEEIEEPEFIALCQKLKVPDHVRERAWLTWEKVSSVDGILEGYIQKKKELWGICIFIAAVDLDEMPFTFTELQKSIETSVYKFFDLLKEIDTSTKVDNAMSRLLKKYNVLCALYSKLERTCELIYLTQPSSALSTEINSMLVLKISWITFLLAKGEVLQMEDDLVISFQLMLCVVDYFIKFSPPALLREPYKTAAIPINGSPRTPRRGQNRSARIAKQLENDTRIIEVLCKEHECNIDEVKNVYFKNFIPFINSLGIVSSNGLPEVESLSKRYEEVYLKNKDLDARLFLDHDKTLQTDPIDSFETERTPRKNNPDEEANVVTPHTPVRTVMNTIQQLMVILNSASDQPSENLISYFNNCTVNPKENILKRVKDVGHIFKEKFANAVGQGCVDIGVQRYKLGVRLYYRVMESMLKSEEERLSIQNFSKLLNDNIFHMSLLACALEVVMATYSRSTLQHLDSGTDLSFPWILNVLNLKAFDFYKVIESFIKVEANLTREMIKHLERCEHRIMESLAWLSDSPLFDLIKQSKDGEGPDNLEPACPLSLPLQGNHTAADMYLSPLRSPKKRTSTTRVNSAANTETQAASAFHTQKPLKSTSLALFYKKVYRLAYLRLNTLCARLLSDHPELEHIIWTLFQHTLQNEYELMRDRHLDQIMMCSMYGICKVKNIDLKFKIIVTAYKDLPHAAQETFKRVLIREEEFDSIIVFYNSVFMQRLKTNILQYASTRPPTLSPIPHIPRSPYKFSSSPLRIPGGNIYISPLKSPYKISEGLPTPTKMTPRSRILVSIGESFGTSEKFQKINQMVCNSDRVLKRSAEGGNPPKPLKKLRFDIEGADEADGSKHLPAESKFQQKLAEMTSTRTRMQKQRMNESKDVSNKEEK
modifications: hypo-phosphorylated (so in the source); sites not given for this experiment
For B1, the binding entry is on record as “binds”.

(Values after paper PMC9122823.)
